Results are given in words; binding and its absence hold for the method and conditions named. In cells and extracts the contact can be indirect. Some binding calls cover weakened binding; strength is not graded here.
Columns and labels:
[1] = target: RUNX1 (human (endogenous in THP-1)) (UniProt Q01196); assay: co-IP; endogenous proteins, THP-1 nuclear protein extracts; agarose-conjugated anti-PHF6 or anti-RUNX1 antibody, IgG control; 4 °C overnight, five washes of 1x PBS with 1% NP-40; western blot
[2] = target: Runx1 (mouse (endogenous in spleen and bone marrow cells)) (UniProt Q03347); assay: co-IP; reciprocal IPs of endogenous Phf6 and Runx1, mouse spleen and bone marrow protein extracts; IgG control; western blot
[3] = target: wild-type RUNX1 (primary AML samples) (human (endogenous in primary AML cells)) (UniProt Q01196); assay: co-IP; IP and western blot of primary AML samples with wild-type RUNX1 or with a Runt domain mutation

Sequences of proteins named here, by UniProt entry; tags and fusion partners are left off.
UniProt Q01196: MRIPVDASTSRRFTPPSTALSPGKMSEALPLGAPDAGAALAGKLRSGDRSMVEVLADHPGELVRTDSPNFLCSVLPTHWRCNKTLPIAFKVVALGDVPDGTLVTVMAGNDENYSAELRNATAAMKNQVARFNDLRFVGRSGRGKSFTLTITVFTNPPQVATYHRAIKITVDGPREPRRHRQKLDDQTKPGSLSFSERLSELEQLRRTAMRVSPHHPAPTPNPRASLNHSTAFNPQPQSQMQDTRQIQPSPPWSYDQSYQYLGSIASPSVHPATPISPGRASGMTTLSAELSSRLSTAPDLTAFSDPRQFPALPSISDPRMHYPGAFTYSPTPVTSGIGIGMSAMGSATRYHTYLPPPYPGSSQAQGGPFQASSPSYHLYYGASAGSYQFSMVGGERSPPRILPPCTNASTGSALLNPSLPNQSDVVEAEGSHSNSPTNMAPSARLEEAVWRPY
UniProt Q03347: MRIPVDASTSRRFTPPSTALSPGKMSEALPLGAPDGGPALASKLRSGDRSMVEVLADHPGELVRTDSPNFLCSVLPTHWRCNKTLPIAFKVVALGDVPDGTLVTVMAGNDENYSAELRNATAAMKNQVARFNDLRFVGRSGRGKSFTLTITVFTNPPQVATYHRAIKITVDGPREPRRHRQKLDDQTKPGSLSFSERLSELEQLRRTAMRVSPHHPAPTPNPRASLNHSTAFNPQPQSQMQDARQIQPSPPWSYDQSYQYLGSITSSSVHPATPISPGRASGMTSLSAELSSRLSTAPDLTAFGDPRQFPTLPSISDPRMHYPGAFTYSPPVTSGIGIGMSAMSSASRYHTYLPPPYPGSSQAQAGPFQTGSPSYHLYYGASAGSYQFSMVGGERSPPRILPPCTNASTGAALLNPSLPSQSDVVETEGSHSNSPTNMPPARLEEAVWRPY

B1: PHF6 (protein, UniProt Q8IWS0 1-365)
chain: MSSSVEQKKGPTRQRKCGFCKSNRDKECGQLLISENQKVAAHHKCMLFSSALVSSHSDNESLGGFSIEDVQKEIKRGTKLMCSLCHCPGATIGCDVKTCHRTYHYHCALHDKAQIREKPSQGIYMVYCRKHKKTAHNSEADLEESFNEHELEPSSPKSKKKSRKGRPRKTNFKGLSEDTRSTSSHGTDEMESSSYRDRSPHRSSPSDTRPKCGFCHVGEEENEARGKLHIFNAKKAAAHYKCMLFSSGTVQLTTTSRAEFGDFDIKTVLQEIKRGKRMKCTLCSQPGATIGCEIKACVKTYHYHCGVQDKAKYIENMSRGIYKLYCKNHSGNDERDEEDEERESKSRGKVEIDQQQLTQQQLNGN
For B1, the binding [1] was “binds”.

B2: Phf6 (protein, UniProt Q9D4J7 1-364)
chain: MSSSIEQKKGSTRQRKCGFCKSNRDKECGQLLISENQKVAAHHKCMLFSSALVSSHSDNESLGGFSIEDVQKEIKRGTKLMCSLCHCPGATIGCDVKTCHRTYHYHCALHDKAQIREKPSQGIYMVYCRKHKKTAHNSEADLEESFNEHELEPSSPKTKKKSRKGRPRKTNLKGLPEDSRSTSSHGTDEMESSSYRDRSPHRSSPNDTRPKCGFCHVGEEENEARGKLHIFNAKKAAAHYKCMLFSSGTVQLTTTSRAEFGDFDIKTVLQEIKRGKRMKCTLCSQPGATIGCEIKACVKTYHYHCGVQDKAKYIENMSRGIYKLYCKNHSGNDERDEEDEERESKSRGRVAIDQQLTQQQLNGN
In the case of B2, the binding [2] is reported as “binds”.

B3: PHF6 (primary AML samples) (protein, UniProt Q8IWS0 1-365)
chain: MSSSVEQKKGPTRQRKCGFCKSNRDKECGQLLISENQKVAAHHKCMLFSSALVSSHSDNESLGGFSIEDVQKEIKRGTKLMCSLCHCPGATIGCDVKTCHRTYHYHCALHDKAQIREKPSQGIYMVYCRKHKKTAHNSEADLEESFNEHELEPSSPKSKKKSRKGRPRKTNFKGLSEDTRSTSSHGTDEMESSSYRDRSPHRSSPSDTRPKCGFCHVGEEENEARGKLHIFNAKKAAAHYKCMLFSSGTVQLTTTSRAEFGDFDIKTVLQEIKRGKRMKCTLCSQPGATIGCEIKACVKTYHYHCGVQDKAKYIENMSRGIYKLYCKNHSGNDERDEEDEERESKSRGKVEIDQQQLTQQQLNGN
For B3, the binding [3] was “binds”.
